Reference: PMC4928820 (Molecular Pharmaceutics, 2015)

Type: physicochemical
Details: 37 °C, mean ± SD, triplicate

Thermodynamic solubility in Carbitol (cosolvent): 54.3 ± 2.76 mg/g
Thermodynamic solubility in Maisine 35-1 (long-chain mono-, di-, triglyceride): 29.0 ± 0.78 mg/g
Thermodynamic solubility in Capmul MCM EP (medium-chain mono-, di-, triglyceride): 33.5 ± 1.12 mg/g
Thermodynamic solubility in Cremophor EL (surfactant (≤3% w/w water)): 22.7 ± 1.83 mg/g
SMILES: C(=C\c1ccccc1)/CN1CCN(C(c2ccccc2)c2ccccc2)CC1 [cinnarizine]
